{"sequences": {"note": "Protein sequences, listed by entry. Tags and fused reporters are not part of them. Lines headed by an entry give the natural chain unless they say otherwise; changes in a name come on top.", "UniProt Q9WUC3": "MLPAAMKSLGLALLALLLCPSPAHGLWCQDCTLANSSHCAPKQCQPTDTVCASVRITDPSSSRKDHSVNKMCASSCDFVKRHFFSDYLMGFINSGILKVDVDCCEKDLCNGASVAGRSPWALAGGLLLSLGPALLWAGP"}, "source": "patent US20250319180A1", "binders": {"B1": {"name": "12G7 (antibody, V domains shown)", "VH": "QVQLQQWGAGLLKPSETLSLTCAVYGGSFSGYYWSWIRQPPGKGLEWIGEINHSGSTYYNPSLKSRVTMSVDTSKNQFSLKLSSVTAADTAVYYCAKRWELGAFDIWGQGTMVTVSS", "VL": "DIQMTQSPSSLSASVGDRVTITCRASQGISNYLAWYQQKPGKVPKLLIYAASTLQSGVPSRFSGSGSGTDFTLTISSLQPEDVATYYCQKYNSAPRTFGQGTKLEIK"}}, "target": "mouse LY6H expressed on 293T cells (plasmid BBP494, M1-P160 plus Myc-DDK) (mouse) (UniProt Q9WUC3)", "assay": "flow cytometry on 293 cells expressing mouse LY6H (293-neo-mouse LY6H); solid histogram = hIgG1 control", "note": "These are yes or no findings as the source states them, for the method shown.", "data": [{"binder": "B1", "values": [{"measurement": "binding", "value": "no binding (tested: 1 ug/ml (not on the sheet))"}]}]}
